These results are taken from US20250381281A1 (priority 2018, published 2025).

The series is described as follows: peptide synthesis. The following applies: conjugation step.

Turning to DBCO-Ahx-W5, the conjugation yield is recorded as 71.9% yield. Also, the “crude HPLC purity” value (254 nm) was determined as 92.6% AUC at 254 nm. As for “DBCO-2-Amino-1,3-bis(carboxylethoxy)propane(Ahx-F′10)2”, the conjugation yield is reported as 26.8% yield. Moreover, where the note is “254 nm”, the “final HPLC purity” value was found to be 83.4% AUC at 254 nm. Take “DBCO-2-Amino-1,3-bis(carboxylethoxy)propane(Ahx-W5)2”: the conjugation yield came to 30.8% yield.

Substance DBCO-Ahx-F′10 displayed a conjugation yield of 50.6% yield. DBCO-Ahx-F′5 had a conjugation yield of 41.5% yield. Besides, the “final HPLC purity” value (254 nm) is given as >95% AUC at 254 nm. Taken in the same sequence, the figures for DBCO-Ahx-F′20 were 20.5% yield and 94.4% AUC at 254 nm.
